Laboratory results from patent US5808040A, “L-nucleosides incorporated into polymeric structure for stabilization of oligonucleotides” (priority 1997, dated 1998).
At least one structure is not confirmed: it was looked up by name or label, or the drawing left a doubt.

Test system: HBV
Assay: Inhibition of HBV DNA in human hepatoma cells with HBV (2.2.15 cells), 6-day treatment, Southern analysis
Format: cell-based, Hepatitis B virus
Conditions: summary statement

With `Cc1cn([C@H]2O[C@@H](CO)[C@H](O)[C@H]2F)c(=O)[nH]c1=O` [L-FMAU, 2'-fluoro-5-methyl-β-L-arabinofuranosyluridine] the “antiviral activity against HBV (in words)” value was “potent antiviral agent against HBV and EBV”.
